These results are taken from article PMC7290564.

The chains behind the UniProt entries cited, without tags or fusion partners. Where a name states a change or a piece, a line headed by the entry shows the natural chain unless it says otherwise.
UniProt Q60613: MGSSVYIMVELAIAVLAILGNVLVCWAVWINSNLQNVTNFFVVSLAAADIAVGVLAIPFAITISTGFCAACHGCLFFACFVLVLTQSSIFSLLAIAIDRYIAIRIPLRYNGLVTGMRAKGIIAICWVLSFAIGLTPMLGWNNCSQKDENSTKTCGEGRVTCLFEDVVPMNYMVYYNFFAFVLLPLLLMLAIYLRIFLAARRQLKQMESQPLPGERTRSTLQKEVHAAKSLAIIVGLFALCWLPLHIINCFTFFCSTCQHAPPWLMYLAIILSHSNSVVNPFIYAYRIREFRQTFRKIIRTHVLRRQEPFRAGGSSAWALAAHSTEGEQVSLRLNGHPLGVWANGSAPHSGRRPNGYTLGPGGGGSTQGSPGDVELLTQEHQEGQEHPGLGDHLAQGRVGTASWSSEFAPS
UniProt Q9NZU7: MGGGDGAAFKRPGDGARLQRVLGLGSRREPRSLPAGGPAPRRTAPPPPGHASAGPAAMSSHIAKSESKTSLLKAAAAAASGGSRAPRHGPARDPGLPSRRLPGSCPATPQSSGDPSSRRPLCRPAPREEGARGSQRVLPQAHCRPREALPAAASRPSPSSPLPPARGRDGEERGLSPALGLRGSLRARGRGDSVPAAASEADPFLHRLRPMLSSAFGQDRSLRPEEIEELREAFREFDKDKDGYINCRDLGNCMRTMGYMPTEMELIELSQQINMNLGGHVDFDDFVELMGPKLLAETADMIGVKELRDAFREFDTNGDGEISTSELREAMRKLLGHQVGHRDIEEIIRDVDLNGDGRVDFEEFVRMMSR

Experiment [1] has as its target NMDA receptor GluN1 subunit, endogenous in mouse primary microglia and hippocampal neurons (mouse (endogenous in primary microglia and neurons)) (UniProt P35438). The experiment is described as follows: proximity ligation; in situ PLA on fixed, permeabilised mouse hippocampal primary neurons with anti-A2AR and anti-GluN1 antibodies; from wild type (control) or APPSw,Ind mice.

Experiment [2] has the same target. The experiment in a line: proximity ligation; in situ PLA on fixed, permeabilised mouse primary microglia with anti-A2AR and anti-GluN1 antibodies; resting or activated with 1 uM LPS and 200 U/mL IFN-gamma; from wild type (control) or APPSw,Ind mice.
The target of experiment [3] is reconstituted NMDA receptor fused to RLuc (GluN1-RLuc co-expressed with GluN2B) (UniProt Q05586). The experiment is described as follows: FRET or BRET; BRET saturation in living HEK-293T cells 48 h after transfection; constant GluN1-RLuc (0.3 ug cDNA) and GluN2 (0.2 ug cDNA), increasing A2AR-YFP (0.1-0.5 ug cDNA) or caldendrin-YFP (0.1-0.7 ug cDNA); 5 uM coelenterazine H; net BRET in mBU. (BRET reads energy transfer from a luciferase to a nearby fluorophore.)

Results are given in words; binding and its absence hold for the method and conditions named. In cells and extracts the contact can be indirect. Some binding calls cover weakened binding; strength is not graded here.

Regarding “adenosine A2A receptor, endogenous in mouse primary microglia and hippocampal neurons (from UniProt Q60613 1-410)”, the binding result in experiment [1] and in experiment [2] was “binds” throughout.

As for “caldendrin-YFP fusion protein (from UniProt Q9NZU7 1-370)”, the binding result in experiment [3] is recorded as “no binding”.
